In publication PMC5538822, “RNA-dependent stabilization of SUV39H1 at constitutive heterochromatin”:
Positions count from the first letter of the chain named. These are yes or no findings as the source states them, for the method shown. Binding seen in cells or lysates may run through a third protein. Some binding calls cover weakened binding; strength is not graded here. Where a sequence is shown, tags or fusion partners need not be part of it.

Protein sequences, listed by entry. Tags and fused reporters are not part of them.
UniProt P45973: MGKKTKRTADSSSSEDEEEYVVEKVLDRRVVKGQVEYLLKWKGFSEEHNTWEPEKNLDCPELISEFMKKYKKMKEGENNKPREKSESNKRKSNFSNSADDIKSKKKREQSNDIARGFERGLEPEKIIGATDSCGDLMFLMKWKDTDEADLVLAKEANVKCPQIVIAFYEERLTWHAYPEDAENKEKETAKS

Assays:
[1] = molecular target: T1, SUV39H1-GFP (WT) (human) (UniProt O43463); assay: co-IP; GFP-tagged SUV39H1 precipitated with anti-GFP nanobody sepharose from lysates of HeLa Flp-In T-REx cells crosslinked with 0.1% formaldehyde (RIP protocol, denaturing lysis buffer); western blot with anti-SUV39H1 and anti-HP1α
T1 sequence: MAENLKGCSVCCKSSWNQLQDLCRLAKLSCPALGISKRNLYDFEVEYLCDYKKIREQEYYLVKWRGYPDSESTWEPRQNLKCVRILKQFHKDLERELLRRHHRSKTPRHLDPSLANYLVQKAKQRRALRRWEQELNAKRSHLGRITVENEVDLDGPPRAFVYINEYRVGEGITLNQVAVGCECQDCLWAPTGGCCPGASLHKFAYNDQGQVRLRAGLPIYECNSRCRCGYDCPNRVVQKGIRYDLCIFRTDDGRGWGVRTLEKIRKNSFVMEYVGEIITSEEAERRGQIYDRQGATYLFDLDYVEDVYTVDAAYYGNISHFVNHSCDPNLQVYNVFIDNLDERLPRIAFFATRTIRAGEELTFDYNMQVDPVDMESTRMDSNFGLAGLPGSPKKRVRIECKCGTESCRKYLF

[2] = molecular target: T2, SUV39H1^R55A-GFP (human) (UniProt O43463); assay: as above
T2 sequence: T1 sequence with R55A

HP1α (from UniProt P45973 1-191)
binding [1]: binds | binding [2]: binds
